Certain results were filed several times, with different values. This list holds those alone. An entry can have further records. The records of an entry appear to be repeats (runs, samples, wells or individuals); a mean can stand among them.
Key:
[1] = tested on: transgenic tobacco plants expressing mutant HPPD SEQ ID NO: 9; assay: spray test, herbicidal damage scoring; assay type: in vivo; settings: Table 3.4; 14 days after treatment; SEQ ID 9; 100=complete death, 0=no damage; one value per event
Experimental: (§1) Avena sativa HPPD or orthologues and variants thereof, for example SEQ IDs 1-63 and 122-127, were expressed in transgenic tobacco. DNA sequences that encode these polypeptides (optimized for tobacco or, optionally, codon optimized according to a target crop such as soybean) were prepared synthetically. Each sequence was designed to include a 5′ fusion with TMV omega 5′ leader sequence such that they are flanked at the 5′ end with XhoI and at the 3′ end with KpnI to facilitate direct cloning into a suitable binary vector for Agrobacterium-based plant transformation.
(§2) In one example, the TMV omega 5′ leader and a HPPD encoding gene of interest is excised using XhoI/KpnI and cloned into similarly digested binary vector pBIN 19 (Bevan, Nucl. Acids Res. (1984) behind a double enhanced 35S promoter ahead of a NOS 3′ transcription terminator and then transformed into E. coli DH5 alpha competent cells. DNA recovered from the E. coli is used to transform Agrobacterium tumefaciens LBA4404, and transformed bacteria are selected on media contain rifampicin and kanamycin. Tobacco tissue is subjected to Agrobacterium-mediated transformation using methods well described in the art or as described herein. For example, a master plate of Agrobacterium tumefaciens containing the HPPD expressing the binary vector is used to inoculate 10 ml LB (L broth) containing 100 mg/l Rifampicin plus 50 mg/l Kanamycin using a single bacterial colony. This is incubated overnight at 28° C. shaking at 200 rpm. This entire overnight culture is used to inoculate a 50 ml volume of LB containing the same antibiotics. Again this is cultured overnight at 28° C. shaking at 200 rpm. […]
(§3) Plants are assessed for damage and scored at, for example, 7 and 14 days after treatment (DAT). […]
(§4) Plants of events showing the least damage are grown to flowering, then bagged and allowed to self. […] Single copy events amongst the Ti plant lines are identified by their 3:1 segregation ratio (with respect to kanamycin and/or herbicide) and by quantitative RT-PCR. […]

[2] = tested on: transgenic tobacco plants expressing mutant HPPD SEQ ID 20; assay: spray test, herbicidal damage scoring; assay type: in vivo; settings: Table 3.3, 14 days after treatment, 100=complete death, 0=no damage, one value per event
Experimental: as §1, §2, §3, §4

SMILES	herbicidal damage scoring, Herbicide C 200 g/ha [1]	herbicidal damage scoring, Herbicide C (100 g/ha) [1]	herbicidal damage scoring, Bicyclopyrone 800 g/ha [2]
COc1ccc(-n2nc(C)cc(C(=O)C3C(=O)CCCC3=O)c2=O)cc1OC [Herbicide C, dioxopyritrione]	45, 35, 90, 40	25, 10, 75	
COCCOCc1nc(C(F)(F)F)ccc1C(O)=C1C(=O)C2CCC(C2)C1=O			55, 60, 40, 10, 30

From patent US20240043860A1, “NOVEL HYDROXYPHENYLPYRUVATE DIOXYGENASE POLYPEPTIDES AND METHODS OF USE THEREOF” (Syngenta Crop Protection AG, priority 2020, published 2024)
